In article doi:10.1101/748574:
Results are given in words; binding and its absence hold for the method and conditions named. In cells and extracts the contact can be indirect. Some results given as binding are weak or reduced against the parent protein; the word gives no strength.

By UniProt entry, the sequences of proteins in these tests, tags left out. Where a name states a change or a piece, a line headed by the entry shows the natural chain unless it says otherwise. Residues count along the entry.
UniProt Q68DV7, 24-783: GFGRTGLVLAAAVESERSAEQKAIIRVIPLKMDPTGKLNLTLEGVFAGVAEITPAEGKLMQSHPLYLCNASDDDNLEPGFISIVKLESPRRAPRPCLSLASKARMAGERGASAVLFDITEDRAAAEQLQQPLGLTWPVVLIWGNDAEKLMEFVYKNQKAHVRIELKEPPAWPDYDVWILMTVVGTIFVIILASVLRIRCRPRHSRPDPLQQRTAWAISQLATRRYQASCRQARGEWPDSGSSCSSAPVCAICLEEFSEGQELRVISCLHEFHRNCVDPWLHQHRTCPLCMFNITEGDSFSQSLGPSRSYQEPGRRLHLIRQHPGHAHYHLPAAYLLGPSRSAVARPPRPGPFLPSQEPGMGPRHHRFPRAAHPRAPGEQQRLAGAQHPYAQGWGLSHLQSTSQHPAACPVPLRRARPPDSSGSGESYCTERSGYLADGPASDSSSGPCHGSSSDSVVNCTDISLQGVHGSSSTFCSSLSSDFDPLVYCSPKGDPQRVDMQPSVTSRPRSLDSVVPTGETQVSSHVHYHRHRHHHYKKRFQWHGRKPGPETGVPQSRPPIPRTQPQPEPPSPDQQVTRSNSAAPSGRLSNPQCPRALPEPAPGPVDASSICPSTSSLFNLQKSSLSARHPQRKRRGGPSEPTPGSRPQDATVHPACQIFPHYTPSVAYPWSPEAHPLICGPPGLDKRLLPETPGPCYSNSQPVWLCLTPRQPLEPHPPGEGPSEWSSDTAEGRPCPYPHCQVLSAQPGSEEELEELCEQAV
UniProt Q68DV7, 24-518: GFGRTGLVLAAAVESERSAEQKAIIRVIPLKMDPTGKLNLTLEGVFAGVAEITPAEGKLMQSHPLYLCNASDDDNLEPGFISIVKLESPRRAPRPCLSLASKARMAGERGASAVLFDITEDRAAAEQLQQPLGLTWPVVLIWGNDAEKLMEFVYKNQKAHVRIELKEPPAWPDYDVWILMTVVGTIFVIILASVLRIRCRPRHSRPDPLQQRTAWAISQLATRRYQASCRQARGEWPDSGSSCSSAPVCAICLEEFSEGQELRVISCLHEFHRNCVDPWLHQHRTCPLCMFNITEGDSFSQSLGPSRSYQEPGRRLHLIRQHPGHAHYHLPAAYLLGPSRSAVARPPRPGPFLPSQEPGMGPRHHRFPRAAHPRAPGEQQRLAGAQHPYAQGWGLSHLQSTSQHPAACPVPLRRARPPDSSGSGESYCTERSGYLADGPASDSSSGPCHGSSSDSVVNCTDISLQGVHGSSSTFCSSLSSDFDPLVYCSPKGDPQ
UniProt Q68DV7, 24-523: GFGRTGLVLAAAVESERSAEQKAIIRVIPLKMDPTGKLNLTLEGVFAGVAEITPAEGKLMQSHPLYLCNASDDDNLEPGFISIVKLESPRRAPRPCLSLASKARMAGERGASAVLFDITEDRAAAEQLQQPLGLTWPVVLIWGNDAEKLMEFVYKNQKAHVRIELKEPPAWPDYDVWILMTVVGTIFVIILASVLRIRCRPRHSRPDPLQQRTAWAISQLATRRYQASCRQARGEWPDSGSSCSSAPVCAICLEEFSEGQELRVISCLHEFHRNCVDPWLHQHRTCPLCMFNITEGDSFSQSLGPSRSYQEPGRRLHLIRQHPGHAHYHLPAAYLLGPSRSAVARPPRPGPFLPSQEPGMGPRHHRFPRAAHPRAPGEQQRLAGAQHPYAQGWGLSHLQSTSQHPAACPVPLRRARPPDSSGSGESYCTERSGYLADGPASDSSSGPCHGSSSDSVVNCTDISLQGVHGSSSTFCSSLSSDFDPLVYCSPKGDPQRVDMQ
UniProt P25054, whole entry: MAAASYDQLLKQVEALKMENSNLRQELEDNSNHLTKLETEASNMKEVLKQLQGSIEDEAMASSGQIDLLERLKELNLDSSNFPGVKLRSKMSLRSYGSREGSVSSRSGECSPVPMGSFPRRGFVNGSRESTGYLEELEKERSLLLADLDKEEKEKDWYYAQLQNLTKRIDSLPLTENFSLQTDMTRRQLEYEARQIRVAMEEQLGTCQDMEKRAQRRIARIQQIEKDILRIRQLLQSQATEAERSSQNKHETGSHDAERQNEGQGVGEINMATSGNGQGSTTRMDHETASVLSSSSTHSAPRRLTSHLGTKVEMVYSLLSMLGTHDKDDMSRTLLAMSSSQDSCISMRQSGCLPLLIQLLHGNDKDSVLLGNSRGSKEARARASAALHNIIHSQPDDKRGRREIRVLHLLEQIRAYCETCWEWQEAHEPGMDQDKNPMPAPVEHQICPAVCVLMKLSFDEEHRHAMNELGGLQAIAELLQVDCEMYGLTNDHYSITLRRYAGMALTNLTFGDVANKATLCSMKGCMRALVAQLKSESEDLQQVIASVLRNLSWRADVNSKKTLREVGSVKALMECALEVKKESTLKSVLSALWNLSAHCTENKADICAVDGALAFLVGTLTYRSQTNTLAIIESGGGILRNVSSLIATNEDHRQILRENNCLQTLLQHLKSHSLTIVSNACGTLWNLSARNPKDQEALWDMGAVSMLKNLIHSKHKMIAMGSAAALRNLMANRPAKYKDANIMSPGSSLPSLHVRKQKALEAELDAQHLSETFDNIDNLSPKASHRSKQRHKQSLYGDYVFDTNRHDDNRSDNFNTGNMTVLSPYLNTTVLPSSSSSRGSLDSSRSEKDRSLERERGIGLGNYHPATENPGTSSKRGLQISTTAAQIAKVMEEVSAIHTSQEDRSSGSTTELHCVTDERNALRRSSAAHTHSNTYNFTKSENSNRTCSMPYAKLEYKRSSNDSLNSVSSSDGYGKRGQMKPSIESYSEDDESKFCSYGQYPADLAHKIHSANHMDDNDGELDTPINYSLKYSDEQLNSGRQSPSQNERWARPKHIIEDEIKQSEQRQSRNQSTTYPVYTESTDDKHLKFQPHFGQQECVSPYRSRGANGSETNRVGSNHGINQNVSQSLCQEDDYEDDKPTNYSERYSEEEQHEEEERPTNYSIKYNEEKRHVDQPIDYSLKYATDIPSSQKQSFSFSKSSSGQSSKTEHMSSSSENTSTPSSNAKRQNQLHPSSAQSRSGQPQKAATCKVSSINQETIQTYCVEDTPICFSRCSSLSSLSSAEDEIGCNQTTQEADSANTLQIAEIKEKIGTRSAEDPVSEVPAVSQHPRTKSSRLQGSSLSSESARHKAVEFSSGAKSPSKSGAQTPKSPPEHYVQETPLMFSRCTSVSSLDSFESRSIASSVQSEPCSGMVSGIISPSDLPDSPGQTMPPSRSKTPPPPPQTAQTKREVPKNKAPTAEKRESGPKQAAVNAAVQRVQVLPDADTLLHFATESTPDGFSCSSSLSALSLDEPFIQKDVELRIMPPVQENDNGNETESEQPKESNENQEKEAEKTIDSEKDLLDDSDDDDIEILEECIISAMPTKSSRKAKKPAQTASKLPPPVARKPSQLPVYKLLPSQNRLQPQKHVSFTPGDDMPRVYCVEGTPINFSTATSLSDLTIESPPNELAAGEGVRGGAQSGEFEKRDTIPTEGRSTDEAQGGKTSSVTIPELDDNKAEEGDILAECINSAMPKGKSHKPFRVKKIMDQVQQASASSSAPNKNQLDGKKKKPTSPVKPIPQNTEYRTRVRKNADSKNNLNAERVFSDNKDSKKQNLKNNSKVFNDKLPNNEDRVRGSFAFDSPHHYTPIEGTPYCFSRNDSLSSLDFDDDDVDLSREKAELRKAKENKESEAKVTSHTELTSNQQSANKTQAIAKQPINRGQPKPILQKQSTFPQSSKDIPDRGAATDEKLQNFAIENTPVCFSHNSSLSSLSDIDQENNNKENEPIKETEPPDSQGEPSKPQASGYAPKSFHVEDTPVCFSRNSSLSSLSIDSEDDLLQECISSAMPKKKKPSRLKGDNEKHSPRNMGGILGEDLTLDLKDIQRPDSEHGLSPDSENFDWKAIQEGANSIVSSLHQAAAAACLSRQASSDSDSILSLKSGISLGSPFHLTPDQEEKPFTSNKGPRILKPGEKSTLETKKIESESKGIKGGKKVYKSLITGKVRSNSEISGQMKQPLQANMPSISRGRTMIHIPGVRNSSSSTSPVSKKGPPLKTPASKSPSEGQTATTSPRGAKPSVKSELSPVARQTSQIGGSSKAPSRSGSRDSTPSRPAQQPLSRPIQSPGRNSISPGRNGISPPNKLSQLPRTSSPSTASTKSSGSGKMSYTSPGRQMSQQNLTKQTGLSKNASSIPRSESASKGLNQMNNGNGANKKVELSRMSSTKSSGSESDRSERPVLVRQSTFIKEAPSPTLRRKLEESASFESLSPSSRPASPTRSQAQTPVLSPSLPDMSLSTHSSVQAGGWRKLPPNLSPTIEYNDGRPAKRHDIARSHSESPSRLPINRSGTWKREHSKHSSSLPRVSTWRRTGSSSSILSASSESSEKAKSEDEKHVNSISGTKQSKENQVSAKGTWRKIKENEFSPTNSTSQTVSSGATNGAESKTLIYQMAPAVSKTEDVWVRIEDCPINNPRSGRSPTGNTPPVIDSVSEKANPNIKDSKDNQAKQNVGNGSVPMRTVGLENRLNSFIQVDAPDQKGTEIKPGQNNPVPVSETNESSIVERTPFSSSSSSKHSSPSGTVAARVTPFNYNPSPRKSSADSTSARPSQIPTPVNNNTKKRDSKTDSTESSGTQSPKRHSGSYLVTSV
UniProt O15169, whole entry: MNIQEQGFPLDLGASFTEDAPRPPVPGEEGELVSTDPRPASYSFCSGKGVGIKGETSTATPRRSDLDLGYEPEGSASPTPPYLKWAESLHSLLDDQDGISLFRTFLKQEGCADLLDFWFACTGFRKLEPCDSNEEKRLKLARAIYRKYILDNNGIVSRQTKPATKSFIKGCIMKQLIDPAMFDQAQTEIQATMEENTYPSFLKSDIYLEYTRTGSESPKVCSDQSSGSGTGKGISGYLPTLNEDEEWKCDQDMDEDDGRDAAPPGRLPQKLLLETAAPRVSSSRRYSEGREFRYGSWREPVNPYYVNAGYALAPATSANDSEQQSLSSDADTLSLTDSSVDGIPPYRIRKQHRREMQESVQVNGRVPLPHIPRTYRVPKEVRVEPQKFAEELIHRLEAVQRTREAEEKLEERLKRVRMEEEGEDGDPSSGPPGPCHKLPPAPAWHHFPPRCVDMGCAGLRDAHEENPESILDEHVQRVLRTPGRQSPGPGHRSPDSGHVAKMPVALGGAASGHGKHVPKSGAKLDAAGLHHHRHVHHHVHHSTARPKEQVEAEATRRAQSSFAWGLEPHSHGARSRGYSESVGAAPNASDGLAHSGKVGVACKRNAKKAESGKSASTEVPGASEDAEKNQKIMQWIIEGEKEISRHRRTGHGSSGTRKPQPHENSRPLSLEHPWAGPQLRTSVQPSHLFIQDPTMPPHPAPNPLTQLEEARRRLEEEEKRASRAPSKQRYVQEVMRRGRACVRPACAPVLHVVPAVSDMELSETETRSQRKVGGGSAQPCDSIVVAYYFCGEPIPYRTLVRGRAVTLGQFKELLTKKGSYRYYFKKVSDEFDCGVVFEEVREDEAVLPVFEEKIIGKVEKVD
UniProt P49674, whole entry: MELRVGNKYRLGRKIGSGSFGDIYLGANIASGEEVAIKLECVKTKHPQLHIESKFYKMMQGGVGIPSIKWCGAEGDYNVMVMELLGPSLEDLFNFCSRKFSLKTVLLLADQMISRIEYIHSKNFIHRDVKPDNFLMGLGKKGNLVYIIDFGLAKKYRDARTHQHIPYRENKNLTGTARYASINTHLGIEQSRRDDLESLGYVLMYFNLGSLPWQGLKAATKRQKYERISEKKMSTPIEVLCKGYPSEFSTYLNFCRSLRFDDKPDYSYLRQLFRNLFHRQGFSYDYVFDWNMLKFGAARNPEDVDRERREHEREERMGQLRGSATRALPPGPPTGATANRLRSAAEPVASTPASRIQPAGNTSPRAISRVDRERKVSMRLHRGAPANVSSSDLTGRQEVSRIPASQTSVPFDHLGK
UniProt P49841, whole entry: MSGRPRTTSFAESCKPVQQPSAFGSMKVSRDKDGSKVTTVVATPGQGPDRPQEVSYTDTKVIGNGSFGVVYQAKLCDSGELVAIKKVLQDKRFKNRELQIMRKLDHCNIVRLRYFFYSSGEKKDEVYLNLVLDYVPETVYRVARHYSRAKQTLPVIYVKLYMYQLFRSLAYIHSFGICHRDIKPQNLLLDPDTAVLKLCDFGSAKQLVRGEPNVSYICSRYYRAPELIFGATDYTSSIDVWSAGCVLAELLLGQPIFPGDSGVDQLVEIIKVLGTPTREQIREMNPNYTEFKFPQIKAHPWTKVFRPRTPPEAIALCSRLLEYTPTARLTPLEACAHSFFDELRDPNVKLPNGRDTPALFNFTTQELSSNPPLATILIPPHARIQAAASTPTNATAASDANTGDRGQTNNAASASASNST

Experiments:
Assay in all cases: co-IP
RNF43 R519X (human) = RNF43 R519X (human) (UniProt Q68DV7)
[1] = molecular target: RNF43–2×Flag–HA, wild type (human) (UniProt Q68DV7)
V5-APC = V5-APC (UniProt P25054)
[2] = molecular target: Axin1, endogenous (human (endogenous in HEK293T and T-REx-293)) (UniProt O15169)
RNF43 P524X (human) = RNF43 P524X (human) (UniProt Q68DV7)

Substance: Axin1, endogenous (from UniProt O15169 1-862)
- binding (RNF43 R519X (human)): binds
- binding [1]: binds

Substance: Casein kinase 1 epsilon, endogenous (from UniProt P49674 1-416) (enzyme)
- binding (RNF43 R519X (human)): binds
- binding [1]: binds

Substance: GSK3β, endogenous (from UniProt P49841 1-420) (enzyme)
- binding [1]: binds

Substance: RNF43 P524X (from UniProt Q68DV7 24-523) (domain or fragment)
- binding (V5-APC): binds

Substance: RNF43 R519X (from UniProt Q68DV7 24-518) (domain or fragment)
- binding [2]: binds

Substance: RNF43–2×Flag–HA, wild type (from UniProt Q68DV7 24-783)
- binding [2]: binds
- binding (V5-APC): binds

Substance: myc-GSK3β (from UniProt P49841 1-420) (enzyme)
- binding (RNF43 P524X (human)): binds
- binding [1]: binds
